Earlier results as cited in patent US9387169B2, “Rapamycin powders for pulmonary delivery” (Civitas Therapeutics, Inc., priority 2014, dated 2016).

Details: crystalline powder

solubility in water: insoluble in water
SMILES: CO[C@H]1C[C@@H]2CC[C@@H](C)[C@@](O)(O2)C(=O)C(=O)N2CCCC[C@H]2C(=O)O[C@H]([C@H](C)C[C@@H]2CC[C@@H](O)[C@H](OC)C2)CC(=O)[C@H](C)/C=C(\C)[C@@H](O)[C@@H](OC)C(=O)[C@H](C)C[C@H](C)/C=C/C=C/C=C/1C [Rapamycin]
